# Laboratory results as given in article PMC12040169 (PLOS Biology, 2025).
# The list shows a part of the results.
# Tested on: T1, CTL2-GFP (C. trachomatis L2/434/Bu, GFP-expressing)
# T1 construct: L2/434/Bu, GFP-expressing
# Design: species or system HeLa; Intracellular C. trachomatis growth in HeLa cells, bulk GFP fluorescence relative to DMSO
# Conditions: bulk GFP, single well; 28.5 h, 10 µM; inhibitor
row,SMILES,% of control remaining
1,CC(C)NC(=O)[C@H]1O[C@H](CCN2CCN(c3ccccn3)CC2)CC[C@@H]1O [CBK288722],110.953%
2,O=C1CCc2cccc(OCCO)c21 [CBK001442],93.4389%
3,O=C(O)c1ccc(NS(=O)(=O)c2ccc(Br)c3ccccc23)cc1O [CBK299772],154.729%
4,C=CCN1CCc2cc(-c3cncn3CC(=O)NC(C)(C)C)ccc21 [CBK281923],144.091%
5,C[C@@H]1CN(C(=O)c2cn(C)c3ccccc23)C[C@H](C)O1 [CBK200235],128.827%
6,CC(C)c1noc(C(C)N2CCN(Cc3noc(C(C)(C)C)n3)CC2)n1 (centres unmarked) [CBK305202],152.765%
7,COc1ccc2c(c1)C1(CC(=O)N(Cc3ccccc3)C1=O)C(=O)N2CC(=O)O (centres unmarked) [CBK076108],100%
8,CNC(=O)C1(Cc2ccccc2-c2ccccc2)CCN(C(=O)Cc2cccc(C)c2)CC1 [CBK285594],101.953%
9,O=C(NCC1CCCN1)c1cnn(-c2ccc(Cl)cc2)c1C(F)(F)F (centres unmarked) [CBK115925C],118.41%
10,CCCCn1nc(C2CC2)nc1-c1cnn2cc(C)cnc12 [CBK306683],132.481%
11,COc1ccc(F)c(CN2CCC3(CCCNC3=O)CC2)c1 [CBK284827],105.865%
12,O=S(=O)(NCc1cccnc1)N1CCOCC1 [CBK269945],148.84%
13,C[C@H](Nc1cncc(-c2cccc(CO)c2)n1)c1ccccc1 [CBK065512],202.912%
14,N#Cc1ccc(C(=O)Nc2ccc3n(c2=O)C[C@H]2C[C@@H]3CN(C(=O)c3ccccc3)C2)cc1 [CBK289073],116.586%
15,CC1CCCN(CC(C)(C)NC(=O)c2ccnn2C(F)F)C1 (centres unmarked) [CBK282099],147.097%
16,O=C(COC(=O)c1ccccc1NC(=O)c1ccccc1)c1ccc2ccccc2c1 [CBK265491],118.293%
17,O=C(N[C@H]1CCN2C(=O)[C@H]3CCCN3C(=O)[C@@H]2C1)c1cccs1 [CBK289538],128.207%
18,O=C(Nc1ccc2[nH]ccc2c1)N1CCCC(CO)C1 (centres unmarked) [CBK156044],100%
19,COc1ncccc1-c1csc(N2CCOC(C)C2)n1 (centres unmarked) [CBK304118],119.385%
20,CC(C)(C)c1ccc(Oc2c(C(F)(F)F)oc3cc(OCC(=O)O)ccc3c2=O)cc1 [CBK217882],100%
21,CC(NC(=O)Cc1c[nH]c(=O)[nH]c1=O)c1cc2cc(Cl)ccc2o1 (centres unmarked) [CBK285673],122.216%
22,CCOC(=O)c1ccc(-c2[nH]cnc2-c2c(C)cc(OC)cc2O)o1 [CBK026647],65.2562%
23,c1ccc2c(c1)CCC(CNCCN1CCOCC1)O2 (centres unmarked) [CBK023956G],127.001%
24,Cc1cc(Br)cc(C)c1OCC(=O)NNC(=O)Cc1cccc2ccccc12 [CBK267151],116.511%
25,Cc1ccc(-c2oncc2C(=O)NCc2ccc(S(N)(=O)=O)cc2)cc1 [CBK154912],110.592%
26,COc1cccc(Nc2cc(-c3cccc(N)c3)ncn2)c1OC [CBK090726],144.521%

row,SMILES,% of control remaining
1,Nc1ncc(-c2cccc(Br)c2)nc1NC1CCOCC1 [CBK063854],128.703%
2,Cc1cc(-c2cn3cc(C(=O)NCCO)nc3c(=O)n2C)c(C)o1 [CBK307288],98.6279%
3,Cc1cc(C2CCCCCN2C(=O)c2ccccc2F)on1 (centres unmarked) [CBK284842],136.946%
4,Cc1ccc(S(=O)(=O)NCCSc2ccccn2)cc1[N+](=O)[O-] [CBK263566],100%
5,Cc1cc(C)c(C#N)c(N2CCOC3(CCN(C(=O)OCc4ccccc4)CC3)C2)n1 [CBK161114T],142.956%
6,CSc1ccc(-c2cn3ccnc3c(N3CCN(CCO)CC3)n2)cc1 [CBK066596],170.105%
7,COc1ccc(C)cc1S(=O)(=O)n1cc2c3c(cccc31)CN(C(=O)CN(C)C)C2 [CBK155549T],107.828%
8,COc1ccc(C(=O)Nc2cc(C)c3c(=O)oc4ccccc4c3n2)cc1 [CBK287435],140.97%
9,O=C(O)C1CC=CCC1C(=O)c1c[nH]c2ccccc12 (centres unmarked) [CBK286603],120.017%
10,N#Cc1ccccc1COC(=O)c1cc(-c2ccc(/C=C/c3[nH]c(=O)[nH]c(=O)c3[N+](=O)[O-])o2)ccc1Cl [CBK268888],90.8093%
11,O=C(c1coc2ccc(O)c(CN3CCCCC3)c12)C1CC1 [CBK263206C],117.391%
12,COc1ccc(OC)c(CN(C(=O)c2oc3ccc(F)cc3c2C)c2cnn(C)c2)c1 [CBK298278],159.028%
13,O=[N+]([O-])c1ccc(CN(CCc2ccccc2)Cc2ccccc2)cc1 [CBK261866],117.812%
14,CC(NC(=O)c1cn(-c2ccccc2)nc1-c1cccnc1)c1ccccn1 (centres unmarked) [CBK295660],112.752%
15,N#CCC(=O)Nc1ccc(C(=O)N2CCN(c3ccccc3)CC2)cc1 [CBK306060],124.337%
16,Cc1cccc(-c2ncc(NC(=O)CCc3cccc(Cl)c3)nc2-c2cccnc2)c1 [CBK037201],87.4669%
17,Cc1cc2c(o1)CCc1sc(N(C)C(=O)C3CC(=O)N(C)C3)nc1-2 (centres unmarked) [CBK283980],116.347%
18,C[C@@H](Nc1cncc(-c2ccc(F)cc2F)n1)c1ccccc1 [CBK065676],87.2004%
19,CCCOc1ccc(-c2cn(CC(=O)NN)cn2)cc1 [CBK261790],112.822%
20,CCn1c(C2CCN(C(=O)c3cc(C(F)(F)F)n[nH]3)CC2)nn(C)c1=O [CBK307184],106.572%
21,Cc1noc(C)c1C(=O)Nc1cnc(-c2cccc(C(F)(F)F)c2)c(-c2cccnc2)n1 [CBK036727],102.072%
22,COC(=O)Nc1ccc2c(c1)N(C(=O)CCN1CCOCC1)c1ccccc1CC2 [CBK261284C],115.724%
23,CCN(CC)c1ccc(C(=O)Cn2c(=O)n(C(=O)c3cccc(S(C)(=O)=O)c3)c3ccccc32)cc1 [CBK106500],66.356%
24,Cc1nc2c(C(=O)NCC3CCCO3)cnn2c(C)c1Cc1cccnc1 (centres unmarked) [CBK162160],152.679%
25,Cc1cc(=O)n2ccc(CN3CCOCC3)c(O)c2n1 [CBK262899C],144.668%
26,C=CCn1c(SCC(=O)Nc2ccnc3ccccc23)nnc1-c1cccnc1 [CBK268723],126.998%

row,SMILES,% of control remaining
1,Cn1cc(CCCCNC(=O)Cc2c[nH]c3ccc(Cl)cc23)cn1 [CBK306364],116.515%
2,CCNC(=O)N1CC2(CCN(CC3COc4ccccc4O3)CC2)c2ccccc21 (centres unmarked) [CBK143944],107.237%
3,O=C1[C@@H]2CCCN2C(=O)c2ccccc2N1CCN1CCCC1 [CBK282857],98.1354%
4,O=C(CSc1nnc(-c2ccc(F)cc2)n1-c1ccccc1)Nc1cccc2ccccc12 [CBK267592],118.384%
5,O=c1[nH]c(=O)c2cc(S(=O)(=O)NCc3ccccc3CN3CCCC3)ccc2[nH]1 [CBK286395],93.3532%
6,CCN1CCN(C(=O)CN(C)S(=O)(=O)c2ccc(Cl)cc2)CC1 [CBK267218],129.34%
7,COc1ccc(C(=O)Nc2cc(C)c3c(=O)oc4ccccc4c3n2)c(OC)c1 [CBK291231],154.357%
8,CC(C)(CNC(=O)Cn1cccc(C(=O)Nc2ccc(F)cc2)c1=O)c1ccccc1F [CBK286067],123.759%
9,CC(=O)c1ccc(-c2nc(NC(=O)CC3OC(=O)c4ccccc43)cnc2-c2cccc(C)c2)s1 (centres unmarked) [CBK037152],175.524%
10,FC(F)(F)Oc1ccc(-n2cc(-c3ccsc3)nn2)cc1 [CBK113096],148.226%
11,CC(C)(CO)CNc1cncc(-c2ccc(O)cc2)n1 [CBK065386],173.706%
12,Cc1cccc(CN2CCC(NC(=O)Cn3ccccc3=O)CC2)c1 [CBK305667],95.9275%
13,O=C(O)c1cccc2c1C(=O)N(Cc1ccncc1)C2 [CBK291146],156.718%
14,CC(=O)Nc1ccc(CN2Cc3nc[nH]c3C[C@H]2c2nc(-c3ccc(F)cc3)no2)cc1 [CBK288956],107.161%
15,CC(NC(=O)C1CCN(Cc2ccc(Oc3ccccc3)cc2)CC1)c1ccccc1 (centres unmarked) [CBK148618],94.7628%
16,CN(C)CCN(C)c1cc(-c2cccc(C(=O)O)c2)nc2ccnn12 [CBK037206],136.19%
17,CCc1cccc(NC(=O)NCCC2=CCCCC2)c1 [CBK045009],107.844%
18,CC(Sc1ccccc1)C(=O)NCCCN1CCOCC1 (centres unmarked) [CBK269214],112.836%
19,CN(C)S(=O)(=O)c1ccc(C(=O)Nc2ccc(Br)cc2C(=O)c2ccccc2)cc1 [CBK263243],116.481%
20,Cc1cc(NC(=O)c2ccc3[nH]ccc3c2)c2ccccc2n1 [CBK116270],92.1939%
21,COc1ccc(CNC(=O)c2cc(S(=O)(=O)N3CCCC3)cn2C)cc1 [CBK304637],99.6208%
22,COc1ccc(OC)c(NC(=O)C(C)Oc2ccccc2OC)c1 (centres unmarked) [CBK269766],136.688%
23,CCOC(=O)c1c(NC(=O)C2C3CCC(C3=C(C)C)C2C(=O)O)sc2c1CCCCC2 (centres unmarked) [CBK265439],112.582%
24,Cc1ccc(C(=O)Nc2nnc(C3=COCCO3)o2)cc1C [CBK287413],123.902%
25,O=C(CCNc1n[nH]c(=O)[nH]c1=O)N/N=C/c1ccc(C(F)(F)F)cc1 [CBK263518],116.431%

# Of the compounds above, 4 have bromine.
row,SMILES,% of control remaining
3,O=C(O)c1ccc(NS(=O)(=O)c2ccc(Br)c3ccccc23)cc1O [CBK299772],154.729%
24,Cc1cc(Br)cc(C)c1OCC(=O)NNC(=O)Cc1cccc2ccccc12 [CBK267151],116.511%
1,Nc1ncc(-c2cccc(Br)c2)nc1NC1CCOCC1 [CBK063854],128.703%
19,CN(C)S(=O)(=O)c1ccc(C(=O)Nc2ccc(Br)cc2C(=O)c2ccccc2)cc1 [CBK263243],116.481%
